From the supplement of paper PMC12067093, “Discovery and optimisation of a covalent ligand for TRIM25 and its application to targeted protein ubiquitination” (Chemical Science, 2025)
This is one part of the list.

Compound: Cc1cc(ccc1-c1ccccc1)C(=O)N1CCCN(CC1)C(=O)CCl [compound 10]
Assay: probe-labelled cysteine peptide fold change vs DMSO (competition) (log2 fold change); higher = less target engagement (more negative = stronger competition)
Settings: THP-1, incubation time: 4 h
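Note: competitive profiling in live THP-1 cells: cysteine peptides tagged with an iodoacetamide desthiobiotin (IA-DTB) probe, intensity after compound treatment relative to DMSO-treated cells.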

Target	probe-labelled cysteine peptide fold change (10 µM)	probe-labelled cysteine peptide fold change (50 µM)
OBSL1_O75147_412_LKADDDGIYLCEMR (UniProt O75147)	0.107	0.00258
NXF3_Q9H4D5_214_LAMNQQCDVSQEALDIQR (UniProt Q9H4D5)	-0.0938	-0.107
NUP153_P49790_871+874_CLACESAKPGTK (UniProt P49790)	0.172	-0.334
NUP188_Q5SRE5_9_AAAAGGPCVR (UniProt Q5SRE5)	0.156	0.173
NUBPL_Q8TB37_244_VHVPVLGLVQNMSVFQCPK (UniProt Q8TB37)	0.14	0.0845
OGDH_Q02218_507_DVVVDLVCYR (UniProt Q02218)	0.19	0.266
ODF2_Q5BJF6_364_LCMQIK (UniProt Q5BJF6)	0.134	-0.067
NUDT12_Q9BQG2_247_QRHENCYFLHPPMPALLQLK (UniProt Q9BQG2)	-0.0681	-0.116
NUP160_Q12769_558_FYACCLQYQEALSHPLALHLNPHTNMVCLLK (UniProt Q12769)	0.194	0.31
NUP153_P49790_1065_SASVAPFTCK (UniProt P49790)	-0.179	-0.383
NUP155_O75694_667_HNGICIYFSR (UniProt O75694)	-0.0934	0.0846
NVL_O15381_687_NSAPCVIFFDEVDALCPR (UniProt O15381)	0.105	0.172
NTPCR_Q9BSD7_184_NHLLPDIVTCVQSSR (UniProt Q9BSD7)	-0.0593	-0.0301
NVL_O15381_803_EASICALR (UniProt O15381)	0.107	-0.0294
OPA1_O60313_551_NLSLAVSDCFWK (UniProt O60313)	0.215	0.135
NUMA1_Q14980-4_1729_PQLDLSIDSLDLSCEEGTPLSITR (UniProt Q14980)	-0.124	0.388
NUP155_O75694_356_SVFKPIVQIAVIENSESLDCQLLAVTHAGVR (UniProt O75694)	0.0396	0.0661
OARD1_Q9Y530_33+38_TDSLAHCISEDCR (UniProt Q9Y530)	-0.118	-0.279
NUP98_P52948_1419_KQINVCSQLDWK (UniProt P52948)	-0.217	0.161
ODC1_P11926_114_IIYANPCK (UniProt P11926)	-0.0815	-0.145
NVL_O15381_309_GVLLHGPPGCGK (UniProt O15381)	0.0664	0.0738

Target	probe-labelled cysteine peptide fold change (10 µM)	probe-labelled cysteine peptide fold change (50 µM)
NUDT9_Q9BW91_347_RDAHWSEDSEADCHAL (UniProt Q9BW91)	0.0175	0.173
NUDT18_Q6ZVK8_185+189_HPLILPQELPCDLVCQR (UniProt Q6ZVK8)	0.126	-0.127
NUP88_Q99567_155_STVNCSTTPVAER (UniProt Q99567)	-0.187	0.0547
NUP85_Q9BW27_603_CLEDLTSR (UniProt Q9BW27)	0.00808	0.173
NUP188_Q5SRE5_1270_DSMETDDCSR (UniProt Q5SRE5)	-0.22	0.0252
OAT_P04181_93_YFDFLSSYSAVNQGHCHPK (UniProt P04181)	0.0237	0.0378
ODR4_Q5SWX8_77_AKLDNLDEEWATEHACQVSR (UniProt Q5SWX8)	-0.158	-0.0362
NVL_O15381_431_EICLGIPDEASR (UniProt O15381)	0.0387	0.275
OCRL_Q01968_64+82_CVQEAEETLLIDIASNSGCK (UniProt Q01968)	-0.0892	-0.302
OAS2_P29728_361_CFLEQIDSAVNIIR (UniProt P29728)	-0.201	0.0545
NUBP2_Q9Y5Y2_202_VMGIVENMSGFTCPHCTECTSVFSR (UniProt Q9Y5Y2)	0.103	-0.187
OGA_O60502_166_RKLDQVSQFGCR (UniProt O60502)	-0.11	-0.0253
OFD1_O75665_503_AIVVEHEEFESCR (UniProt O75665)	-0.063	-0.338
NUMA1_Q14980_80_KHPSSPECLVSAQK (UniProt Q14980)	0.0544	-0.524
OAS2_P29728_210_HWHQQCQK (UniProt P29728)	-0.708	0.204
NUP155_O75694_561_LHQEDQACATCLILACSTAACDR (UniProt O75694)	-0.0434	0.113
NUB1_Q9Y5A7_400_ACDGNVDHAATHITNR (UniProt Q9Y5A7)	0.157	0.0323
NVL_O15381_626_ALGLVTPAGVLLAGPPGCGK (UniProt O15381)	0.356	0.23
OGT_O15294_417_EMQDVQGALQCYTR (UniProt O15294)	-0.0642	-0.366
NUDT18_Q6ZVK8_100_EVKEEAGLHCEPETLLSVEER (UniProt Q6ZVK8)	-0.346	-0.626
NUMA1_Q14980_1930_VCPPHLK (UniProt Q14980)	-0.216	0.0786

Target	probe-labelled cysteine peptide fold change (10 µM)	probe-labelled cysteine peptide fold change (50 µM)
NUP205_Q92621_698_CEEYPLTR (UniProt Q92621)	0.0608	-0.00172
OGFR_Q9NZT2_330_TCGPEHSK (UniProt Q9NZT2)	0.037	-0.198
NXF1_Q9UBU9_252_SCMAATLR (UniProt Q9UBU9)	-0.058	-0.0281
NUDT2_P50583_143_AALQEGHQFLCSIEA (UniProt P50583)	0.05	0.0308
OBSL1_O75147_362_EHGIAVLECK (UniProt O75147)	0.0287	0.0424
OCIAD2_Q56VL3_134_HCLLTCEECK (UniProt Q56VL3)	0.0848	-0.201
OLA1_Q9NTK5_187_KLKPEYDIMCK (UniProt Q9NTK5)	-0.145	-0.776
NUP133_Q8WUM0_457_IVFNAQGDSVLGAGACGGVPIIFSR (UniProt Q8WUM0)	-0.00853	0.118
NUP50_Q9UKX7_333_PLEGQAEGDSGECK (UniProt Q9UKX7)	-0.049	0.167
OGFR_Q9NZT2_87_DCNGDTPNLSFYR (UniProt Q9NZT2)	-0.203	0.0552
NUP43_Q8NFH3_362_SLSVNTLDVLGPCLVCGTDAEAIYVTR (UniProt Q8NFH3)	0.0576	0.0801
NUP88_Q99567_447+454_CFVEHILCTKPLPCR (UniProt Q99567)	-0.19	-0.613
OAS2_P29728_652_TRPVILDPAEPTGDVGGGDRWCWHLLAK (UniProt P29728)	-0.246	-0.237
NUP210_Q8TEM1_767_LTLAPVYTSPQLDMSCPLLQQNK (UniProt Q8TEM1)	-0.0587	0.226
NUMB_P49757_58_GMHICEDAVKR (UniProt P49757)	-0.0579	-0.352
NUP210_Q8TEM1_109_CDAIVDLIHDIQIVSTTR (UniProt Q8TEM1)	0.163	0.398
OGT_O15294_620_VMAEANHFIDLSQIPCNGK (UniProt O15294)	-0.221	-0.934
NUP160_Q12769_1131_QGNCYLAALNCLR (UniProt Q12769)	0.11	-0.0856
NUP205_Q92621_1662_CQDVSAGSLQELALLTGIISK (UniProt Q92621)	0.0612	0.271
NUP205_Q92621_1032_TCLHAILNILEK (UniProt Q92621)	0.046	-0.161
NUMA1_Q14980_658_KVEELQACVETAR (UniProt Q14980)	-0.0196	-0.0926

A different layout for part of the listing above.
Target,probe-labelled cysteine peptide fold change (10 µM),probe-labelled cysteine peptide fold change (50 µM)
NVL_O15381_626_ALGLVTPAGVLLAGPPGCGK (UniProt O15381),0.356,0.23
OGT_O15294_417_EMQDVQGALQCYTR (UniProt O15294),-0.0642,-0.366
NUDT18_Q6ZVK8_100_EVKEEAGLHCEPETLLSVEER (UniProt Q6ZVK8),-0.346,-0.626
NUMA1_Q14980_1930_VCPPHLK (UniProt Q14980),-0.216,0.0786
NUP205_Q92621_698_CEEYPLTR (UniProt Q92621),0.0608,-0.00172
OGFR_Q9NZT2_330_TCGPEHSK (UniProt Q9NZT2),0.037,-0.198
NXF1_Q9UBU9_252_SCMAATLR (UniProt Q9UBU9),-0.058,-0.0281
NUDT2_P50583_143_AALQEGHQFLCSIEA (UniProt P50583),0.05,0.0308
OBSL1_O75147_362_EHGIAVLECK (UniProt O75147),0.0287,0.0424
OCIAD2_Q56VL3_134_HCLLTCEECK (UniProt Q56VL3),0.0848,-0.201
OLA1_Q9NTK5_187_KLKPEYDIMCK (UniProt Q9NTK5),-0.145,-0.776
NUP133_Q8WUM0_457_IVFNAQGDSVLGAGACGGVPIIFSR (UniProt Q8WUM0),-0.00853,0.118
NUP50_Q9UKX7_333_PLEGQAEGDSGECK (UniProt Q9UKX7),-0.049,0.167
OGFR_Q9NZT2_87_DCNGDTPNLSFYR (UniProt Q9NZT2),-0.203,0.0552
NUP43_Q8NFH3_362_SLSVNTLDVLGPCLVCGTDAEAIYVTR (UniProt Q8NFH3),0.0576,0.0801
NUP88_Q99567_447+454_CFVEHILCTKPLPCR (UniProt Q99567),-0.19,-0.613
OAS2_P29728_652_TRPVILDPAEPTGDVGGGDRWCWHLLAK (UniProt P29728),-0.246,-0.237
NUP210_Q8TEM1_767_LTLAPVYTSPQLDMSCPLLQQNK (UniProt Q8TEM1),-0.0587,0.226
NUMB_P49757_58_GMHICEDAVKR (UniProt P49757),-0.0579,-0.352
NUP210_Q8TEM1_109_CDAIVDLIHDIQIVSTTR (UniProt Q8TEM1),0.163,0.398
OGT_O15294_620_VMAEANHFIDLSQIPCNGK (UniProt O15294),-0.221,-0.934
NUP160_Q12769_1131_QGNCYLAALNCLR (UniProt Q12769),0.11,-0.0856
NUP205_Q92621_1662_CQDVSAGSLQELALLTGIISK (UniProt Q92621),0.0612,0.271
NUP205_Q92621_1032_TCLHAILNILEK (UniProt Q92621),0.046,-0.161
NUMA1_Q14980_658_KVEELQACVETAR (UniProt Q14980),-0.0196,-0.0926

Remaining list, next part

Target	probe-labelled cysteine peptide fold change (10 µM)	probe-labelled cysteine peptide fold change (50 µM)
NUP155_O75694_917_ISNQVDLSNVCAQYR (UniProt O75694)	-0.109	0.0618
ODF2_Q5BJF6_708_TRECGTLAR (UniProt Q5BJF6)	0.538	0.396
OGDH_Q02218_283_RFGLEGCEVLIPALK (UniProt Q02218)	0.0129	0.167
NUP205_Q92621_1486_DACDGHEIGR (UniProt Q92621)	0.0414	0.227
NUP205_Q92621_1297_QLVEIILTACPQDLIQAEDR (UniProt Q92621)	0.422	0.366
NUDT14_O95848_127_EAWEECGYHLAPSDLR (UniProt O95848)	-0.0835	0.0546
NUP98_P52948_1711_HIQQVDCSGNDLEQLHIK (UniProt P52948)	0.166	0.0136
NTPCR_Q9BSD7_101_NADCSSGPGQR (UniProt Q9BSD7)	0.646	0.828
NUP214_P35658_1003_TSCKDDEAVVQAPR (UniProt P35658)	-0.105	-0.359
NUP188_Q5SRE5_161_VEYADCVDK (UniProt Q5SRE5)	0.0699	0.497
NUDT12_Q9BQG2_177_LCQLNYTDIK (UniProt Q9BQG2)	0.0693	-0.0214
NUP153_P49790_148_SHLNFSMLESPALHCQPSTSSAFPIGSSGFSLVK (UniProt P49790)	0.077	0.0348
NUP160_Q12769_480_ALQIFCR (UniProt Q12769)	0.0415	-0.0431
NUP160_Q12769_473_EMYLQSLFTPGQFTNEALCK (UniProt Q12769)	0.168	-0.0779
NUDT2_P50583_123_WLGLEEACQLAQFK (UniProt P50583)	-0.122	0.0127
NUP205_Q92621_1275_LLQCLHAK (UniProt Q92621)	0.0221	0.00907
NUP50_Q9UKX7_416_ADTNLGNILLNVLIPPNMPCTR (UniProt Q9UKX7)	-0.0173	-0.0779
OGA_O60502_181_SFALLFDDIDHNMCAADK (UniProt O60502)	0.121	0.0336
OGFOD1_Q8N543_308_VCEALEHGHVEWSSR (UniProt Q8N543)	0.0306	0.155
OAS1_P00973_331_QLAQEAEAWLNYPCFK (UniProt P00973)	-0.132	-0.0175
NUP205_Q92621_237_QSLAESLFAWACQSPLGKEDTLLLIGHLER (UniProt Q92621)	0.216	0.344
